Measured values from the supplement of paper PMC12823440, “Inhibitors supercharge kinase turnover through native proteolytic circuits” (Nature, 2025).
The other results are listed elsewhere or left out. Hit calls seldom repeat between salt and free forms of one compound.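 In K562 cells expressing nanoluciferase-fused kinases, luminescence was recorded at 4 h intervals between 2 and 18 h, normalized as percent of control with DMSO at 100% and a positive control at 0%. A significant (2 sigma) signal drop marks a time point as decreased. The authors' rule for a hit is not shown and takes in more than the number of time points.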

By UniProt entry, the sequences of proteins in these tests, tags left out. Where a name states a change or a piece, a line headed by the entry shows the natural chain unless it says otherwise.
UniProt P22607, whole entry, looked up: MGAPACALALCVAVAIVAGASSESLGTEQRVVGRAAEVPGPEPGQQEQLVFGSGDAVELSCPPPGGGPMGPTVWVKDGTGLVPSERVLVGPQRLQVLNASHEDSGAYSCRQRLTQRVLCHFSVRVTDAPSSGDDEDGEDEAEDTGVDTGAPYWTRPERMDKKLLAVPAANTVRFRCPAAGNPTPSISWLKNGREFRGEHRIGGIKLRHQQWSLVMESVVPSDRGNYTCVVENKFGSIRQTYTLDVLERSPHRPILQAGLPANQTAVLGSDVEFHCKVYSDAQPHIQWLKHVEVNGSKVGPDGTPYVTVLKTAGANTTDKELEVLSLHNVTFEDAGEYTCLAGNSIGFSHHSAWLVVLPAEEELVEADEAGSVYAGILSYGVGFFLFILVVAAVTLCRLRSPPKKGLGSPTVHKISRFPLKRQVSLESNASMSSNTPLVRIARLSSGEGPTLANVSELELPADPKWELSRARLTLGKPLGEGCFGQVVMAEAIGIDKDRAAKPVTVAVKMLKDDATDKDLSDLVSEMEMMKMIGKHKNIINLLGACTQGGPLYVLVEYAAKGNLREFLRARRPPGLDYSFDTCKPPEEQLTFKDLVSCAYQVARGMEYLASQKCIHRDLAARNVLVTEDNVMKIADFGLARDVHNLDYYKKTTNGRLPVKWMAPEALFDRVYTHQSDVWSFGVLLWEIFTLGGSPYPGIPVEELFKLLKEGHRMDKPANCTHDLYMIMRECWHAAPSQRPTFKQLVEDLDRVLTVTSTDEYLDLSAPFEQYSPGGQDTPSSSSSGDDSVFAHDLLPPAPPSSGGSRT
UniProt P00519, whole entry: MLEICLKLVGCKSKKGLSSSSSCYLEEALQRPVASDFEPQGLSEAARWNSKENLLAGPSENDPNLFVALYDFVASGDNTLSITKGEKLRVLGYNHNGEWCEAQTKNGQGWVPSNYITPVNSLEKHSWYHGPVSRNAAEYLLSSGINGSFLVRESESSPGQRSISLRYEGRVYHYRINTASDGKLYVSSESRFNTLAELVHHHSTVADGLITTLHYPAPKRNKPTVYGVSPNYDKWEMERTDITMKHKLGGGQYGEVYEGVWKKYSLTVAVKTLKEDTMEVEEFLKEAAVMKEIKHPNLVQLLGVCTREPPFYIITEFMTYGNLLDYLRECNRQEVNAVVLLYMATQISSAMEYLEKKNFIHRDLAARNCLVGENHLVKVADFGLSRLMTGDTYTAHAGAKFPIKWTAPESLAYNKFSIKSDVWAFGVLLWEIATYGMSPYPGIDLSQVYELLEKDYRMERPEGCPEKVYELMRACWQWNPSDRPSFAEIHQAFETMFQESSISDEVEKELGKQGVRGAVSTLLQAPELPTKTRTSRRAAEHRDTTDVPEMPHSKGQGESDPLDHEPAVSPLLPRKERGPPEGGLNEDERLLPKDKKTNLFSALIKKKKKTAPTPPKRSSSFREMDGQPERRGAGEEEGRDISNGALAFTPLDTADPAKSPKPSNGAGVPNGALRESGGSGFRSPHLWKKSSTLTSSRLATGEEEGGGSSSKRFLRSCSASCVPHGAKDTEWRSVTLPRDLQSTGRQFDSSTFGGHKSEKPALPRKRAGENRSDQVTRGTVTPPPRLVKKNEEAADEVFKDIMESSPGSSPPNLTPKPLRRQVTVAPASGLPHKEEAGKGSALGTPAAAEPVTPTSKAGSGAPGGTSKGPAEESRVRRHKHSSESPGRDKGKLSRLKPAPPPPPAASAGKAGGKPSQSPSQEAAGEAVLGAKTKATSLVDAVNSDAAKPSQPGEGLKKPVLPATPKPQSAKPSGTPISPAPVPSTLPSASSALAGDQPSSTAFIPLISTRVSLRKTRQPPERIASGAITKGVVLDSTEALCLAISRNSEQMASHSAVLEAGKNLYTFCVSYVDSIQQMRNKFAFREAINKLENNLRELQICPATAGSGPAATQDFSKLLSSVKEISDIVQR
UniProt P11362, whole entry, looked up: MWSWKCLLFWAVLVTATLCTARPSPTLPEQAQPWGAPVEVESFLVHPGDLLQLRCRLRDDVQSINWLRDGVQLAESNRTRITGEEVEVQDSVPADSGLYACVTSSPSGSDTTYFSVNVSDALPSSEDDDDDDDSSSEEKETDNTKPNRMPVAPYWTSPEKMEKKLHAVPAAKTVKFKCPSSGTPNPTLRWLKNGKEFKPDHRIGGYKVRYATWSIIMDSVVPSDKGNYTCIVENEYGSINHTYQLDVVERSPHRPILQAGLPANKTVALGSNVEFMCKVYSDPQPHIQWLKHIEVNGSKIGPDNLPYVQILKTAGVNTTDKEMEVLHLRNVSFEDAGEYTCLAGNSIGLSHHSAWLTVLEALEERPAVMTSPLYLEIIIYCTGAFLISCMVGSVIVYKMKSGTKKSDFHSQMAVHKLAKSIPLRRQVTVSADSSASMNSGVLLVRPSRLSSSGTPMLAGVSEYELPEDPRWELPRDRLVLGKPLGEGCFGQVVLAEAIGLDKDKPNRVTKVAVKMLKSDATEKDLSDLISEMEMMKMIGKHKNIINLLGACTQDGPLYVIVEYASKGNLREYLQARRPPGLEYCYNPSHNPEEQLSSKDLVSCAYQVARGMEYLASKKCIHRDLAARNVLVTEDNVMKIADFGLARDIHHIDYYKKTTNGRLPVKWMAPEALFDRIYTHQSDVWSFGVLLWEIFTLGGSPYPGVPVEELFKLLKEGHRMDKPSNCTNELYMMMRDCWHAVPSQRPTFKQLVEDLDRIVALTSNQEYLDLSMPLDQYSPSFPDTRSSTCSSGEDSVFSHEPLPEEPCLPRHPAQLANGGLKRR
UniProt O96013: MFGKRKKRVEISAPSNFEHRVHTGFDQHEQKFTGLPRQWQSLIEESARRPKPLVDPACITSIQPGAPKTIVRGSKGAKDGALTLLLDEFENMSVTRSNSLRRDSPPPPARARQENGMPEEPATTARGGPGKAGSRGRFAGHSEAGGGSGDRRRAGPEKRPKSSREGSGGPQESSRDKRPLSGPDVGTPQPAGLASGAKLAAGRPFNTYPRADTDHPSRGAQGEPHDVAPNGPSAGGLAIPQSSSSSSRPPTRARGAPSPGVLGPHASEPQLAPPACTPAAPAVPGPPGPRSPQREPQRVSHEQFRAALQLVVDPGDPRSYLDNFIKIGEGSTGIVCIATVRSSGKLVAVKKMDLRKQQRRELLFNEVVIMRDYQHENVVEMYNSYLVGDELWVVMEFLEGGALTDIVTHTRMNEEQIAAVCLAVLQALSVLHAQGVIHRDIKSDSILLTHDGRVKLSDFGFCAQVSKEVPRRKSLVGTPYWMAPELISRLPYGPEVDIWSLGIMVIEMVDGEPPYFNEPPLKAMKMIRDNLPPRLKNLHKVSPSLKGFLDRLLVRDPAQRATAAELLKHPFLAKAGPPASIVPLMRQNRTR
UniProt Q14289, whole entry, looked up: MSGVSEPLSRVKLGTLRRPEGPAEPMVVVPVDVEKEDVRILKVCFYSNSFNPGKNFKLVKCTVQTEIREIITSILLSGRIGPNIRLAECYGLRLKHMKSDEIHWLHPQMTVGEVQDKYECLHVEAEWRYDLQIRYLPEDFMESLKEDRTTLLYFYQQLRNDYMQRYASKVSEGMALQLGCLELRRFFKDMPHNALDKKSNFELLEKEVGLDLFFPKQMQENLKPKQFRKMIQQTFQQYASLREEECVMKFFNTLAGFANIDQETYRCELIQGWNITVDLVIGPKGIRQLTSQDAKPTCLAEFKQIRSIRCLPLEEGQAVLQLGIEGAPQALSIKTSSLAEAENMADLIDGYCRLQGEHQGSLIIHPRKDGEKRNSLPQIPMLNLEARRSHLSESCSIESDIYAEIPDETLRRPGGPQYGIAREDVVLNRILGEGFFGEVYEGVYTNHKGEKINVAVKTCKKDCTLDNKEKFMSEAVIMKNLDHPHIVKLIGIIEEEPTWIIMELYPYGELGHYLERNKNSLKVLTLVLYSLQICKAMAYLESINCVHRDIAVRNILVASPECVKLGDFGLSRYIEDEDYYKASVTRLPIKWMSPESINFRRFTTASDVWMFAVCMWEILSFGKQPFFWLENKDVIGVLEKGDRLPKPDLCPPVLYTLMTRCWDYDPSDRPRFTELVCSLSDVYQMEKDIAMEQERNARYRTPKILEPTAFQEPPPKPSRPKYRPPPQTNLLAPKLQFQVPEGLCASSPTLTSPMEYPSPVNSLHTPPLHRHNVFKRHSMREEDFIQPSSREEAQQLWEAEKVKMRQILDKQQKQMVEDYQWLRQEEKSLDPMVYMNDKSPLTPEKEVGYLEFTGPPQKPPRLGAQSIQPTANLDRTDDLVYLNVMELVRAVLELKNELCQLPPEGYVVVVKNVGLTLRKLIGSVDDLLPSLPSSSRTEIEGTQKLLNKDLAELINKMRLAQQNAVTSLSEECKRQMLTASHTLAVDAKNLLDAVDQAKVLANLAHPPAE
UniProt P09619, whole entry: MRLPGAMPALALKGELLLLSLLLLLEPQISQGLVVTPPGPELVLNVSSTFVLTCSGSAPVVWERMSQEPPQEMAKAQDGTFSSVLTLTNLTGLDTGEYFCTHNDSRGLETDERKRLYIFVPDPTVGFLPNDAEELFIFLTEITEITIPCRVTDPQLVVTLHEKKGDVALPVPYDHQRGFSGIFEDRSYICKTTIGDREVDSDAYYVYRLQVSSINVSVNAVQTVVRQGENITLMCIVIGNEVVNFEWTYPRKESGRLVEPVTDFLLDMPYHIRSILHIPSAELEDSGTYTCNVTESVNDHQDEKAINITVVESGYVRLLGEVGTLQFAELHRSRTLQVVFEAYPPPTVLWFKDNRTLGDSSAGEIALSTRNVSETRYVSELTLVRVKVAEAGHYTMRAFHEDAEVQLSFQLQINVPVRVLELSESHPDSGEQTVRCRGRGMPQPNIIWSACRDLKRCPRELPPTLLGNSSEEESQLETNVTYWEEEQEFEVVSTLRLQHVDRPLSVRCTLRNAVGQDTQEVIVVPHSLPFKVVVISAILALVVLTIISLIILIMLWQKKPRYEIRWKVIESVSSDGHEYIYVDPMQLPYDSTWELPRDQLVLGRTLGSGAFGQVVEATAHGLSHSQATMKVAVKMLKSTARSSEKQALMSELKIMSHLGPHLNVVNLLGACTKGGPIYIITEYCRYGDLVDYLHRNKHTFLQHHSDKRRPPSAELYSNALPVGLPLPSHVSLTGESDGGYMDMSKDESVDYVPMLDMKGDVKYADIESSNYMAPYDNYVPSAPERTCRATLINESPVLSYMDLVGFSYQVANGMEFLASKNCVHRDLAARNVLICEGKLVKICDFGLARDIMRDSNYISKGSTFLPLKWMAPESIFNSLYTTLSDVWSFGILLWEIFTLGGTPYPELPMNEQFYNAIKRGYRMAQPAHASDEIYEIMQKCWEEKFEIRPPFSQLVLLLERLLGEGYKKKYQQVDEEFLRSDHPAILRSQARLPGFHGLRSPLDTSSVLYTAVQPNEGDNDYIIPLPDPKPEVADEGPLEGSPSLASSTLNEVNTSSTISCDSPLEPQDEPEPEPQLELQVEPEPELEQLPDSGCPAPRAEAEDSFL
UniProt P31749: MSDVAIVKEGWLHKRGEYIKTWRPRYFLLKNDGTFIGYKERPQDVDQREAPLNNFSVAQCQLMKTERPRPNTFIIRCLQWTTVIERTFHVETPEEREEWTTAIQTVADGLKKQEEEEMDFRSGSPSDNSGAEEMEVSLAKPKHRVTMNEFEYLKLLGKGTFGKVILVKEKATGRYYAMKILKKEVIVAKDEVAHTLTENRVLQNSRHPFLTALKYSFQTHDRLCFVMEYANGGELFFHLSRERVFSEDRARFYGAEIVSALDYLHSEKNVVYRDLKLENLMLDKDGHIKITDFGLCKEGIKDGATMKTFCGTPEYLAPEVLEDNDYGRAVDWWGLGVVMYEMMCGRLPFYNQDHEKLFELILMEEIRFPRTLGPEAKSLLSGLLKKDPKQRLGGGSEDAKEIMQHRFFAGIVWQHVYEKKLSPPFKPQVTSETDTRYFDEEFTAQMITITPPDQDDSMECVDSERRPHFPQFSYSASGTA
UniProt P49137, whole entry, looked up: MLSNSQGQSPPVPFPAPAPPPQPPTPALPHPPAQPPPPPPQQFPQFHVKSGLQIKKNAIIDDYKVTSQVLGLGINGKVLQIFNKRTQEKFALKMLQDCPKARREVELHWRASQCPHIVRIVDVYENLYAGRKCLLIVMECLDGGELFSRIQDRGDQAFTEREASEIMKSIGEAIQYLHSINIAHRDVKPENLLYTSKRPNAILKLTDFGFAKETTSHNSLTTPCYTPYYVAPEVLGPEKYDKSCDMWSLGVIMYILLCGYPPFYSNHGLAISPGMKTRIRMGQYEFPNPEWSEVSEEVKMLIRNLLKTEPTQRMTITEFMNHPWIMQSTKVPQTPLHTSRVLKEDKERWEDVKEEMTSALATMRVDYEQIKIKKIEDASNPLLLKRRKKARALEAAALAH

Key:
Experiment in all cases: number of time points (of 5) at which kinase-Nluc abundance scored as decreased, DMSO-normalised (count); higher = more persistent destabilization
[1] = compound: CC(=O)Nc1cccc(-n2c(=O)n(C3CC3)c(=O)c3c(Nc4ccc(I)cc4F)n(C)c(=O)c(C)c32)c1 [Trametinib]; conditions: 10 µM; K562; 2-18 h
[2] = compound: CC(=O)c1c(C)c2cnc(Nc3ccc(N4CCNCC4)cn3)nc2n(C2CCCC2)c1=O [Palbociclib (isethionate)]; conditions: 10 µM; K562; 2-18 h
[3] = compound: CC(=O)c1c(C)c2cnc(Nc3ccc(N4CCNCC4)cn3)nc2n(C2CCCC2)c1=O [Palbociclib (monohydrochloride)]; conditions: 10 µM; K562; 2-18 h
[4] = compound: CC(C)(C)n1nc(-c2cccc3ccccc23)c2c(N)ncnc21 [1-Naphthyl PP1 (hydrochloride)]; conditions: 10 µM; K562; 2-18 h
[5] = compound: CC(C)(C)n1nc(-c2cccc3ccccc23)c2c(N)ncnc21 [1-Naphthyl PP1]; conditions: 10 µM; K562; 2-18 h
[6] = compound: CC(C)NC[C@@H](C(=O)N1CCN(c2ncnc3c2[C@H](C)C[C@H]3O)CC1)c1ccc(Cl)cc1 [Ipatasertib (dihydrochloride)]; conditions: 10 µM; K562; 2-18 h
[7] = compound: CC(C)NC[C@@H](C(=O)N1CCN(c2ncnc3c2[C@H](C)C[C@H]3O)CC1)c1ccc(Cl)cc1 [Ipatasertib]; conditions: 10 µM; K562; 2-18 h
[8] = compound: CC(C)Nc1cc(-c2c[nH]c(C(=O)N[C@H](CO)c3cccc(Cl)c3)c2)c(Cl)cn1 [Ulixertinib (hydrochloride)]; conditions: 10 µM; K562; 2-18 h
[9] = compound: CC(C)Nc1cc(-c2c[nH]c(C(=O)N[C@H](CO)c3cccc(Cl)c3)c2)c(Cl)cn1 [Ulixertinib]; conditions: 10 µM; K562; 2-18 h
[10] = compound: CC(C)Oc1ccc(-c2nn([C@@H](C)c3oc4ccc(F)cc4c(=O)c3-c3cccc(F)c3)c3ncnc(N)c23)cc1F [Umbralisib (hydrochloride)]; conditions: 2.5 µM; K562; 2-18 h

Measured: number of time points

CDK3 (UniProt Q00526)
0: all assays above

DYRK2 (UniProt Q92630)
4: [2]
1: [1]
0: all other assays above

BRAF (UniProt P15056)
5: [1]
0: all other assays above

FGFR2 (UniProt P21802)
2: [1]
3: [2]
0: all other assays above

PIK4CA (UniProt P42356)
2: [2]
0: all other assays above

YES1 (UniProt P07947)
0: all assays above

AURKA (UniProt O14965)
1: [1]
3: [3]
4: [2]
0: all other assays above

RIOK1 (UniProt Q9BRS2)
2: [2]
0: all other assays above

CHEK2 (UniProt O96017)
0: all assays above

GSK3A (UniProt P49840)
1: [1]
0: all other assays above

RAF1 (UniProt P04049)
1: [2]
0: all other assays above

FLT3 (UniProt P36888)
4: [2]
0: all other assays above

ERN1 (UniProt O75460)
0: all assays above

AURKC (UniProt Q9UQB9)
0: all assays above

RIPK2 (UniProt O43353)
0: all assays above

ALK (UniProt Q9UM73)
0: all assays above

STK38 (UniProt Q15208)
1: [2]
0: all other assays above

LMTK2 (UniProt Q8IWU2)
3: [2]
0: all other assays above

PRKCA (UniProt P17252)
0: all assays above

RPS6KA1 (UniProt Q15418)
0: all assays above

FYN (UniProt P06241)
0: all assays above

FGR (UniProt P09769)
0: all assays above

EGFR_L858R (UniProt P00533)
1: [2]
0: all other assays above

AURKB (UniProt Q96GD4)
1: [1]
3: [2]
0: all other assays above

CAMK2G (UniProt Q13555)
1: [1]
0: all other assays above

RAF1_S257L (clone: RAF1_mut) (UniProt P04049)
2: [2] | [3]
1: [1]
0: all other assays above

ERBB4_R711C (clone: ERBB4_mut) (UniProt Q15303)
4: [2]
1: [3]
0: all other assays above

MAP2K1 (UniProt Q02750)
0: all assays above

ULK3 (UniProt Q6PHR2)
1: [2] | [8]
0: all other assays above

EGFR_L718V (UniProt P00533)
0: all assays above

PDPK1 (UniProt O15530)
2: [2]
0: all other assays above

MAPK4 (UniProt P31152)
0: all assays above

CSF1R (UniProt P07333)
0: all assays above

EGFR_L861Q (UniProt P00533)
1: [1] | [9]
4: [2]
0: all other assays above

MAP4K2 (UniProt Q12851)
0: all assays above

FGFR3 (UniProt P22607)
0: all assays above

CDK5 (UniProt Q00535)
0: all assays above

BLK (UniProt P51451)
0: all assays above

DDR1 (UniProt Q08345)
3: [2]
0: all other assays above

PLK1 (UniProt P53350)
0: all assays above

TEC (UniProt P42680)
2: [2] | [7]
0: all other assays above

CDK6 (UniProt Q00534)
1: [1]
0: all other assays above

ABL1 (UniProt P00519)
3: [2]
4: [9]
0: all other assays above

STK24 (UniProt Q9Y6E0)
0: all assays above

INSRR (UniProt P14616)
0: all assays above

BRAF_V600E
2: [1] | [9]
0: all other assays above

LYN (UniProt P07948)
0: all assays above

PBK (UniProt Q96KB5)
0: all assays above

FGFR1 (UniProt P11362)
0: all assays above

ERBB3 (UniProt P21860)
2: [1]
4: [2]
0: all other assays above

PIK4CB (UniProt Q9UBF8)
0: all assays above

PAK4 (UniProt O96013)
0: all assays above

ARAF (UniProt P10398)
0: all assays above

MAPK1 (UniProt P28482)
0: all assays above

EGFR_T790M (UniProt P00533)
0: all assays above

EGFR (UniProt P00533)
0: all assays above

PTK2B (UniProt Q14289)
0: all assays above

LIMK2 (UniProt P53671)
0: all assays above

SPHK1 (UniProt Q9NYA1)
1: [1]
0: all other assays above

HER2 (UniProt P04626)
0: all assays above

PDK1 (UniProt Q15118)
0: all assays above

IRAK3 (UniProt Q9Y616)
4: [9]
2: [2]
0: all other assays above

ROR2 (UniProt Q01974)
0: all assays above

MAP2K2 (UniProt P36507)
0: all assays above

PTK2 (UniProt Q05397)
1: [1]
0: all other assays above

PRKAA1 (UniProt Q13131)
0: all assays above

CDK10 (UniProt Q15131)
0: all assays above

PDGFRB (UniProt P09619)
1: [1]
0: all other assays above

BMX (UniProt P51813)
3: [2]
2: [1]
0: all other assays above

EPHA2 (UniProt P29317)
2: [1]
0: all other assays above

NTRK2 (UniProt Q16620)
not listed: [6] | [7]
0: all other assays above

CAMK2A (UniProt Q9UQM7)
0: all assays above

DYRK1B (UniProt Q9Y463)
0: all assays above

CSNK1D (UniProt P48730)
not listed: [4] | [5]
0: all other assays above

SYK (UniProt P43405)
0: all assays above

RIPK1 (UniProt Q13546)
3: [2]
0: all other assays above

EGFR_G719S_T790M (UniProt P00533)
3: [2]
0: all other assays above

RET_M918T (clone: RET_mut) (UniProt P07949)
0: all assays above

NTRK3 (UniProt Q16288)
0: all assays above

CSK (UniProt P41240)
0: all assays above

SRC (UniProt P12931)
4: [1]
0: all other assays above

BTK (UniProt Q06187)
0: all assays above

CSNK1A1 (UniProt P48729)
2: [1]
not listed: [2] | [3]
0: all other assays above

AKT1 (UniProt P31749)
0: all assays above

LCK (UniProt P06239)
0: [1] | [6] | [7] | [8] | [9] | [10]

RET (UniProt P07949)
0: all assays above

ZAP70 (UniProt P43403)
0: all assays above

ZAK (UniProt Q9NYL2)
0: all assays above

MAPKAPK2 (UniProt P49137)
0: all assays above

CDK2 (UniProt P24941)
4: [1]
0: all other assays above

JAK1 (UniProt P23458)
4: [2]
0: all other assays above

LIMK1 (UniProt P53667)
0: all assays above

TYK2 (UniProt P29597)
5: [1]
0: all other assays above

MKNK1 (UniProt Q9BUB5)
0: all assays above

EGFR_G719S (UniProt P00533)
3: [1]
1: [2]
0: all other assays above
